All values are in %. The record does not define 0% and 100%; most values in the screen are far below 50% and negative numbers occur (in some assays of this library far below -100). The compounds are a random part of those screened. A dash means the value is not listed here; it may have been measured.

Sequences of proteins named here, by UniProt entry; tags and fusion partners are left off.
UniProt E9BF75, entry or part of it: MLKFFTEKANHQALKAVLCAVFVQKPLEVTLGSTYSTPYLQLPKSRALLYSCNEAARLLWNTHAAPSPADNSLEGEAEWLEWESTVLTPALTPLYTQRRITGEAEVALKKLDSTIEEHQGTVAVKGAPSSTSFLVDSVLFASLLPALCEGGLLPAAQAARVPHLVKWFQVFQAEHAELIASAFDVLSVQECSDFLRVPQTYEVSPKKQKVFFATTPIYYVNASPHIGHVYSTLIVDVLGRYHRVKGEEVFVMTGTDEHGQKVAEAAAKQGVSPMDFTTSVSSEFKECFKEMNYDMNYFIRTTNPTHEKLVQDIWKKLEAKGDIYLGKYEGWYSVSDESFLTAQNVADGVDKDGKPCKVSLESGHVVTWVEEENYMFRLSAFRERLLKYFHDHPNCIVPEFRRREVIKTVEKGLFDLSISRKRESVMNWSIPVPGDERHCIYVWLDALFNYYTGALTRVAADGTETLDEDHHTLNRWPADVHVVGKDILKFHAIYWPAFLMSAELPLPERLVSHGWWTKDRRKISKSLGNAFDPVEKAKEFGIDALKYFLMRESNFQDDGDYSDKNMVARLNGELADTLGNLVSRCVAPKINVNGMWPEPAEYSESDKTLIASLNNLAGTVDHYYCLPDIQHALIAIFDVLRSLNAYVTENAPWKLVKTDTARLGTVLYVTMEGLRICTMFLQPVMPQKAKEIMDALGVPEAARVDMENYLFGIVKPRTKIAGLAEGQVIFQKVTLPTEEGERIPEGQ

A: 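Assay on Mycobacterium tuberculosis, filed only as a heat shock assay from Cornell; the read-out is not stated. The concentration is filed as 10 mM, unlikely as a test dose, so the dose is not known. Direction is inferred from retests: higher values go with stronger inhibition. Size under these conditions: about 69,000 compounds, about 930 of them at 50% or above in at least one test.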
B: 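Primary screen of methionyl-tRNA synthetase; the read-out is not stated. Target: Methionyl-tRNA synthetase (putative), Leishmania donovani (UniProt E9BF75). The test concentration is not given. Values are per cent inhibition. Size under these conditions: about 68,000 compounds, about 24 of them at 50% or above in at least one test.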
C: 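Whole-cell assay for inhibitors of Mycobacterium tuberculosis growth, labelled Cornell in the record; the read-out is not stated. The concentration is filed as 10 mM, unlikely as a test dose, so the dose is not known. The record gives no direction; compounds strong in two other growth screens of this library score well above the rest, so higher reads as stronger inhibition. Of about 53,000 compounds tested this way, about 900 (1.7%) reached 50% or more in at least one test.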

SMILES | A | B | C
COc1cccc(N2CCN(CC(O)c3cc(C)sc3C)CC2)c1 (centres unmarked) | -8.089 | 8.562 | 9.294
CCN(CC)C(=O)CSc1ccc(C(F)(F)F)cn1 | -5.463 | 2.717 | 7.573
CC(C)(C)C(=O)N1CCCc2c(cnn2-c2ccccc2)C1 | -6.057 | 9.206 | -6.007
CC(C)NC(=O)N1CC[C@@H](N(C)C)[C@@H]1Cc1ccccc1 | - | 13.87 | -
COc1ccc(CC(=O)N2CCN(C)c3ncccc3C2)cc1 | - | 4.839 | -
CC(C#N)CSc1ccccc1NCC(=O)Nc1ccc(F)cc1 (centres unmarked) | -7.511 | 5.419 | 9.005
CC(C)CN1CCNC(=O)C12CCN(C(=O)c1ccccn1)CC2 | -4.775 | 11.68 | -8.05
O=C(O)C(F)(F)F.O=C(O)C(F)(F)F.[H][C@]12CCC(=O)N(c3cccnc3)[C@@]1([H])CCN2c1ncc(CC)cn1 | 35.17 | - | 5.714
CN(C)CCCC(=O)N1C[C@H]2CC[C@@H]1CN(Cc1ccccc1)C2 | - | 12.27 | -
CCN(CC)C(C(=O)NCc1ccc(N2CCCC2)nc1)C(C)C (centres unmarked) | 20.57 | 7.843 | -1.448
COC1CN(C(=O)Nc2ccccc2)CCC(=O)N(C)c2ccccc21 (centres unmarked) | 21.4 | 13.97 | 8.227
CC(C)c1noc(CCNC(=O)N2CCSC(C(C)C)C2)n1 (centres unmarked) | 8.486 | 10.42 | -5.075
COc1ccc(Cl)cc1C(C(=O)O)N(C)Cc1ccon1 (centres unmarked) | -13.11 | 1.928 | 5.007
O=C(NCc1cccnc1)N1CCn2c(Cn3cccn3)cnc2C1 | -18.4 | 7.302 | -16.11
CCc1ccc(CNCC2CCN(CCO)CC2)cc1 | -27.99 | 5.017 | -0.9001
Cc1ccc(-c2cnc(CCC(=O)NCCN3CCOCC3)o2)cc1C | -5.926 | 10.84 | 3.576
O=C(O)C(F)(F)F.O=C(O)C(F)(F)F.[H][C@@]12CN(Cc3ccsc3)CCO[C@]1([H])CN(c1ccc(C)nn1)C2 | -16.91 | - | -8.9
Cc1cc(NC(=O)CN2CCCC(Cn3cncn3)C2)on1 (centres unmarked) | 12.57 | 18.79 | 23.38
O=C(NCCc1csc(-c2cnccn2)n1)c1cnn[nH]1 | -12.72 | -3.093 | 7.744
[H][C@@]12CCN(C(=O)c3ccoc3)C[C@@]1([H])O[C@H](c1ccncn1)C2 | -13.51 | - | 9.659
COCC(=O)Nc1ccc(-c2noc([C@@H]3CCCN3C(C)C)n2)cn1 | -23.57 | 7.143 | -
COc1ccc(C(C)NC(=O)Cn2ccc(=O)n(C)c2=O)cc1F (centres unmarked) | 7.847 | 19.13 | -
CC(C)c1nc(C2CCCN(C(=O)CCn3ccccc3=O)C2)no1 (centres unmarked) | -17.8 | 12.85 | -
C[C@@H]1CN(CCc2ccccc2)C[C@]12CCN(CC(=O)N(C)C)C2=O.O=C(O)C(F)(F)F | 2.052 | - | 7.145
Cc1cn2c(=O)c(-c3ccnc(NC4CCOCC4)n3)cnc2s1 | -23.93 | 12.86 | 11.4
[H][C@@]12OCCN(C(=O)C3=CCCC3)[C@@]1([H])CC[C@@H]2OCC1CC1 | 2.181 | - | 6.578
CCC(Nc1nnnn1-c1ccccc1)C(=O)NCc1cccs1 (centres unmarked) | 21.95 | 7.246 | 2.111
NCc1cnn(-c2ccccc2C(=O)NCc2ccccc2Cl)c1 | -20.42 | 7.12 | -1.327
O=C1NCCCCC1Sc1ccccc1F (centres unmarked) | 0.925 | 11.26 | -0.6944
CC(C)=CCC1(CO)CCCN(S(=O)(=O)N2CCCC2)C1 (centres unmarked) | -3.361 | 10.53 | -
O=C(O)C(F)(F)F.[H][C@@]12COC[C@]1(COCC(=O)N(C)C)CN(Cc1ccccc1)C2 | -27.08 | - | -
CS(=O)(=O)NC1CCN(C(=O)c2ccc(Br)o2)C1 (centres unmarked) | 42.52 | 10.6 | -45.48
COc1c(Br)c(C(=O)NC2CCCC2)nn1C | -13.12 | 22.1 | 13.6
CCC(=O)Nc1ccc2c(ccn2CC(=O)N(CC)CC)c1 | -13 | 17.49 | -
COCC1CCCN(c2cncc(OCc3ccccc3)n2)C1 (centres unmarked) | 7.229 | 13.33 | 38.8
COc1ccc(N2CCN(C(=O)Cn3nc(C)c(Cl)c3C)CC2)cc1 | 8.699 | 8.685 | 54.85
O=C(O)C(F)(F)F.[H][C@@]12CN(Cc3ccco3)CCC[C@]1(C(=O)O)CN(c1ncccn1)C2 | -16.36 | - | 16.95
CCn1ccnc1CN(C)C(=O)Cn1ccc2ccccc2c1=O | 9.48 | 13.68 | 0
CC(=O)c1cc2ncc(C(=O)NC3CCCCC3)cc2[nH]1 | 40.86 | 15.28 | -15.54
CN(C)[C@@H]1CN(Cc2cnn(C)c2)[C@@H]2COC[C@H]12 | - | 9.489 | -
CC1CCCN1C1CCN(C(=O)c2cccc(F)c2)CC1 (centres unmarked) | -14.31 | 5.85 | -
Cc1ccc(C2(CN3CCN(Cc4cncn4C)CC3)CC2)cc1 | - | 11.39 | -
Cc1cc(-c2n[nH]c3c2CN(S(=O)(=O)c2ccsc2)CC3)c(C)o1 | -4.736 | 17.33 | 13.61
CCc1ccccc1CNC(=O)CNCC(F)(F)F | 31.17 | 19.6 | -
Cc1n[nH]c(C)c1CCC(=O)NCC1CCOc2ccccc2C1 (centres unmarked) | -41.35 | 14.03 | 26.53
CCOc1ncnc2c1CCN(S(=O)(=O)CC)CC2 | -31.74 | -1.038 | -7.299
NCCC(=O)NCC1(O)CCCN(c2ccnc3cccnc23)C1 (centres unmarked) | 3.69 | 9.627 | 9.558
CN(C)CC1COCCN1C(=O)c1ccccc1C(=O)c1ccccc1 (centres unmarked) | - | 19.23 | -
CC(=O)NCc1nn(C)c2c1CN(Cc1ccsc1)C2.O=C(O)C(F)(F)F | -32.13 | - | 7.745
CN(C)S(=O)(=O)N1C[C@@H]2CC[C@H](C1)N(Cc1ccc(F)c(F)c1)C2 | - | 5.674 | -

3 of the entries, repeated:

SMILES,A,B,C
CC(C)NC(=O)N1CC[C@@H](N(C)C)[C@@H]1Cc1ccccc1,-,13.87,-
CN(C)[C@@H]1CN(Cc2cnn(C)c2)[C@@H]2COC[C@H]12,-,9.489,-
Cc1ccc(C2(CN3CCN(Cc4cncn4C)CC3)CC2)cc1,-,11.39,-

Data taken from ChEMBL document CHEMBL3988442, “University of Dundee, Small-Polar-MMV Screening Library” (2021).